The values below come from publication PMC10274650 (bioRxiv, 2023).

Molecules are shown by their SMILES. Square brackets hold non-standard residues; d marks the D form. Peptide text beside a SMILES is read from it. pGlu = O=C1CC[C@@H](C(=O)O)N1 Where only a bound is given, the exact number is not on record here.

The data set can be described thus: Endogenous capped peptide levels in mouse plasma by LC-MS.

Regarding `CC[C@H](C)[C@H](NC(=O)CNC(=O)[C@H](Cc1c[nH]c2ccccc12)NC(=O)[C@H](CO)NC(=O)[C@H](Cc1c[nH]cn1)NC(=O)[C@H](CO)NC(=O)[C@H](CCCCN)NC(=O)[C@@H]1CCCN1C(=O)[C@H](CC(C)C)NC(=O)[C@H](CC(C)C)NC(=O)[C@H](CC(C)C)NC(=O)[C@@H]1CCC(=O)N1)C(=O)N[C@H](C(=O)N[C@@H](CC(C)C)C(=O)N1CCC[C@H]1C(=O)N[C@@H](CC(C)C)C(=O)NCC(=O)N[C@@H](CCC(=O)O)C(=O)N[C@@H](CC(C)C)C(=O)N[C@@H](CCC(=O)O)C(N)=O)C(C)C` [CAP-CSF1] ([pGlu]LLLPKSHSWGIVLPLGELE-NH2), the “endogenous plasma level in the other comparisons” value (fasting, HFD, 6AM/6PM, old/young, run/sedentary) is on record as “unchanged”.

Take `CC(C)[C@H](NC(=O)[C@@H]1CCC(=O)N1)C(=O)N[C@@H](CCC(=O)O)C(=O)N[C@@H](C)C(N)=O` [CAP-VGF, pGlu-VEA-NH2] ([pGlu]VEA-NH2): where the note is “fasting and high fat diet feeding, N=3/group, LC-MS”, the “induction of endogenous plasma level under nutritional stressors” value was greater than 3 fold.
